At least one structure is not confirmed: it was looked up by name or label, or the drawing left a doubt.
System: hepatotoxic effects of TUDCA
Assay: hepatoprotective activity against bile acid hepatotoxicity on co-administration
Assay type: in vivo
Conditions: 0.8 µmol/min/100g
Text: Normal values of alkaline phosphatase (ALP) and biliary lactate dehydrogenase (LDH) as well as of bile flow and calcium secretion are thereby obtained.

C[C@H](CCC(=O)O)[C@H]1CC[C@H]2[C@@H]3[C@@H](O)C[C@@H]4C[C@H](O)CC[C@]4(C)[C@H]3CC[C@]12C [UDCA, ursodeoxycholic acid]
prevention of hepatotoxic effects (administered with TUDCA at the same dose): far less effective
alkaline phosphatase (ALP) and biliary lactate dehydrogenase (LDH) (for GUDCA also bile flow and calcium secretion normal): not normalized

Reference: patent publication EP0583566A2, “Process for the preparation of glycine-conjugated bile acids and relative pharmaceutical compositions useful for treating hepatic insufficiency” (ERREGIERRE INDUSTRIA CHIMICA Spa, priority 1992, dated 1994)
